Drawing on paper PMC8333360, this text covers binding for one substance.

By UniProt entry, the sequences of proteins in these tests, tags left out. Residues count along the entry.
UniProt P02769, residues 25-607: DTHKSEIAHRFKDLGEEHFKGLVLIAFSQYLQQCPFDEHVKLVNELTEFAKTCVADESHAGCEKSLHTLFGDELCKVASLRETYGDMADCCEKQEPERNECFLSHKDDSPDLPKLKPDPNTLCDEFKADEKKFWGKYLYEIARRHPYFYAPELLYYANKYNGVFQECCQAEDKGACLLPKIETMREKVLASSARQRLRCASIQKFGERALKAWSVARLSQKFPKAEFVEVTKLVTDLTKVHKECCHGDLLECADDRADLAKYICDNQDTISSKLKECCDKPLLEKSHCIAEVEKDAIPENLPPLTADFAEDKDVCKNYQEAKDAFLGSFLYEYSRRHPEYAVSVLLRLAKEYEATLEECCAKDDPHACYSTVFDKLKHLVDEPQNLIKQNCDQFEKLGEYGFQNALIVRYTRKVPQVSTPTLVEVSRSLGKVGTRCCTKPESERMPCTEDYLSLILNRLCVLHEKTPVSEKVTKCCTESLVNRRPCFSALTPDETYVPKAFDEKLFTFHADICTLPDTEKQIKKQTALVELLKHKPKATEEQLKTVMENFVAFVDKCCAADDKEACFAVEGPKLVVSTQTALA

No constants are given. Whether binding was seen depends on the method and setting.

The target of this experiment is T1, 4E-BP1 peptide (CCALNN-GG-…) on gold nanoparticles.
T1 sequence (peptide, bound to the AuNP surface through the thiol of the N-terminal cysteine): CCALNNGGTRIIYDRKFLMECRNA
The experiment can be described thus: controlled aggregation assay of two AuNP conjugates (UV-Vis absorption shift); m7G-cap-TL-AuNP conjugate (0.6 nM in HEPES buffer) incubated 1 h at room temperature with protein (eIF4E 5 nM to 2.56 uM), then an equal volume of 4E-BP1-AuNP conjugate (0.6 nM) added and incubated another hour; absorption measured; both purified.

On to BSA (from UniProt P02769 25-607), for which the binding result is “no binding (tested: 80 nM, 800 nM and 8 µM)”.
